In article PMC10393194:
Results are given in words; binding and its absence hold for the method and conditions named. In cells and extracts the contact can be indirect. These calls come from enrichment with a bait or labelling near it, and not all partners need be listed. Sequences can lack the tags named with a protein.

T1: Hpr1-TS (hpr1-TS/Sub2-FLAG-3C-ProtA yeast strain) (S. cerevisiae) (UniProt P17629)
T1 sequence: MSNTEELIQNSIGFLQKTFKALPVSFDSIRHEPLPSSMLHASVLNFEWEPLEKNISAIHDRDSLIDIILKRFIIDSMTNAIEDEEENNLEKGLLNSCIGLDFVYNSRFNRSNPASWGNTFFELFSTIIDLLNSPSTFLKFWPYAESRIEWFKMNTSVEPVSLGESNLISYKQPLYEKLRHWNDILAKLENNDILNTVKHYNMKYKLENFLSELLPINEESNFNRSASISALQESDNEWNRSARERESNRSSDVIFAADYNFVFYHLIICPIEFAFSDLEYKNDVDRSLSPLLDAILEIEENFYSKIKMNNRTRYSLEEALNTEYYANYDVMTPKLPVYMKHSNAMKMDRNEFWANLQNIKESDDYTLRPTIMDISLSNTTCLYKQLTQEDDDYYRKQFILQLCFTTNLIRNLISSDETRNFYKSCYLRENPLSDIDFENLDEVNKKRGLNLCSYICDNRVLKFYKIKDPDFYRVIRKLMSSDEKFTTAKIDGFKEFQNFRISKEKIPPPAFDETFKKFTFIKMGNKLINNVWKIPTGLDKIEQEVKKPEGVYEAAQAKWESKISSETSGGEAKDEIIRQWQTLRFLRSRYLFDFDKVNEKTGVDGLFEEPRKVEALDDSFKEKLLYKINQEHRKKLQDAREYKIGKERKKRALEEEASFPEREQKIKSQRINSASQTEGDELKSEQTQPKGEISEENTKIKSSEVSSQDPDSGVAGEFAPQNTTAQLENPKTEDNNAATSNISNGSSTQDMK

T2: Sub2-TS (hpr1-FLAG-3C-ProtA/Sub2-TS yeast strain) (S. cerevisiae) (UniProt Q07478)
T2 sequence: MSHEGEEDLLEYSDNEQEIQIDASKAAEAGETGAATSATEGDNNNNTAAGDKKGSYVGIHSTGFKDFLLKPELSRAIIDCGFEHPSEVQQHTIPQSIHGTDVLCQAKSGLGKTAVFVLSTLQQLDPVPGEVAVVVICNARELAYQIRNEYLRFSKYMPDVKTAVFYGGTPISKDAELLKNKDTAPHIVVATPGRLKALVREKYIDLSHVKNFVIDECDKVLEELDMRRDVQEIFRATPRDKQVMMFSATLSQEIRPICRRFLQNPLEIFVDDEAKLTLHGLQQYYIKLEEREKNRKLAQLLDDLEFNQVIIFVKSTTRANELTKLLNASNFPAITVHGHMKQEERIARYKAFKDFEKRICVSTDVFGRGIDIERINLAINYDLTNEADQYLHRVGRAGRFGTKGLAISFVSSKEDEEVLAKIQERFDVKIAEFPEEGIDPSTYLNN


Legend:
[1] = target: T1, Hpr1-TS (hpr1-TS/Sub2-FLAG-3C-ProtA yeast strain) (S. cerevisiae); test: affinity purification with mass spectrometry; as the two-step affinity capture (Sub2-ProtA first, Hpr1-TS second), with RNase A/T1 mix treatment on beads prior to elution from the second affinity step; SDS eluates and unbound fractions on Coomassie-stained SDS-PAGE
[2] = target: T1, Hpr1-TS (hpr1-TS/Sub2-FLAG-3C-ProtA yeast strain) (S. cerevisiae); test: affinity purification with mass spectrometry; two-step affinity capture from cryo-ground yeast lysate: protein A tag on anti-protein A IgG magnetic beads, 3C protease elution, then Twin-Strep tag on Strep-Tactin beads (porous or nonporous); 50 mM potassium phosphate pH 8, 0.1% NP40, 4°C; SDS eluates on Coomassie-stained SDS-PAGE, bands identified by peptide mass fingerprinting
[3] = target: T1, Hpr1-TS (hpr1-TS/Sub2-FLAG-3C-ProtA yeast strain) (S. cerevisiae); test: affinity purification with mass spectrometry; as the native two-step capture with iBAQ LC-MS/MS, with on-bead benzonase treatment prior to elution from the second affinity step; eluate and released fraction analysed
[4] = target: T2, Sub2-TS (hpr1-FLAG-3C-ProtA/Sub2-TS yeast strain) (S. cerevisiae); test: affinity purification with mass spectrometry; two-step affinity capture from cryo-ground yeast lysate: protein A tag on anti-protein A IgG magnetic beads, 3C protease elution, then Twin-Strep tag on Strep-Tactin beads (porous or nonporous); 50 mM potassium phosphate pH 8, 0.1% NP40, 4°C; SDS eluates on Coomassie-stained SDS-PAGE, bands identified by peptide mass fingerprinting

binding [1]	binding [2]	binding [3]	binding [4]	Binder
binds	binds	binds		Sub2-FLAG-3C-ProtA (hpr1-TS/Sub2-FLAG-3C-ProtA yeast strain) (protein, UniProt Q07478 1-446) MSHEGEEDLLEYSDNEQEIQIDASKAAEAGETGAATSATEGDNNNNTAAGDKKGSYVGIHSTGFKDFLLKPELSRAIIDCGFEHPSEVQQHTIPQSIHGTDVLCQAKSGLGKTAVFVLSTLQQLDPVPGEVAVVVICNARELAYQIRNEYLRFSKYMPDVKTAVFYGGTPISKDAELLKNKDTAPHIVVATPGRLKALVREKYIDLSHVKNFVIDECDKVLEELDMRRDVQEIFRATPRDKQVMMFSATLSQEIRPICRRFLQNPLEIFVDDEAKLTLHGLQQYYIKLEEREKNRKLAQLLDDLEFNQVIIFVKSTTRANELTKLLNASNFPAITVHGHMKQEERIARYKAFKDFEKRICVSTDVFGRGIDIERINLAINYDLTNEADQYLHRVGRAGRFGTKGLAISFVSSKEDEEVLAKIQERFDVKIAEFPEEGIDPSTYLNN
			binds	Hpr1-FLAG-3C-ProtA (hpr1-FLAG-3C-ProtA/Sub2-TS yeast strain) (protein, UniProt P17629 1-752) MSNTEELIQNSIGFLQKTFKALPVSFDSIRHEPLPSSMLHASVLNFEWEPLEKNISAIHDRDSLIDIILKRFIIDSMTNAIEDEEENNLEKGLLNSCIGLDFVYNSRFNRSNPASWGNTFFELFSTIIDLLNSPSTFLKFWPYAESRIEWFKMNTSVEPVSLGESNLISYKQPLYEKLRHWNDILAKLENNDILNTVKHYNMKYKLENFLSELLPINEESNFNRSASISALQESDNEWNRSARERESNRSSDVIFAADYNFVFYHLIICPIEFAFSDLEYKNDVDRSLSPLLDAILEIEENFYSKIKMNNRTRYSLEEALNTEYYANYDVMTPKLPVYMKHSNAMKMDRNEFWANLQNIKESDDYTLRPTIMDISLSNTTCLYKQLTQEDDDYYRKQFILQLCFTTNLIRNLISSDETRNFYKSCYLRENPLSDIDFENLDEVNKKRGLNLCSYICDNRVLKFYKIKDPDFYRVIRKLMSSDEKFTTAKIDGFKEFQNFRISKEKIPPPAFDETFKKFTFIKMGNKLINNVWKIPTGLDKIEQEVKKPEGVYEAAQAKWESKISSETSGGEAKDEIIRQWQTLRFLRSRYLFDFDKVNEKTGVDGLFEEPRKVEALDDSFKEKLLYKINQEHRKKLQDAREYKIGKERKKRALEEEASFPEREQKIKSQRINSASQTEGDELKSEQTQPKGEISEENTKIKSSEVSSQDPDSGVAGEFAPQNTTAQLENPKTEDNNAATSNISNGSSTQDMK
